Results reported in US7268124B2, “Geranylgeranyl pyrophosphate synthase inhibitors” (University of Iowa Research Foundation, priority 2004, dated 2007).
Counter-ions that a name gives are not always drawn. Some entries share one result that the patent states for a list of compounds.

Biological target: GGPTase
Test: GGPTase enzyme inhibition
Assay type: biochemical
Settings: mammalian enzyme; also no inhibition at 1 to 10 nanomolar; read-out: GGPTase: not inhibited at concentrations as high as

`CC(C)=CCC/C(C)=C/CC(C/C=C(\C)CCC=C(C)C)(P(=O)(O)O)P(=O)(O)O` [Compound 12, 1-(3,7-dimethyl-octa-2,6-dienyl)-4,8-dimethyl-nona-3,7-dienyl-1,1-bisphosphonic acid, tetrasodium salt] showed an IC50 of over 50 µM.
